Library screen at single concentrations

Sequences of proteins named here, by UniProt entry; tags and fusion partners are left off. Residues count along the entry.
UniProt P9WNZ1, whole entry: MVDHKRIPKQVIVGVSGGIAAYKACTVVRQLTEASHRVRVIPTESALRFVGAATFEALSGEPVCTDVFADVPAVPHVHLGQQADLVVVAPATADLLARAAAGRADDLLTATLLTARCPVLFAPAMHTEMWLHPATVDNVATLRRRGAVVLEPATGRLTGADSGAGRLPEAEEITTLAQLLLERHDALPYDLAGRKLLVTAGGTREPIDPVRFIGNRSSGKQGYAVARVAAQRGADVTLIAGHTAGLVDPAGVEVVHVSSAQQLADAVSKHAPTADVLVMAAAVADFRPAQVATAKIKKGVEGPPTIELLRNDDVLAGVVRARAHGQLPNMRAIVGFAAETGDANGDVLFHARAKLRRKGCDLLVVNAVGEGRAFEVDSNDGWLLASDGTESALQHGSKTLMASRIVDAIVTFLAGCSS
UniProt I6X8D2, whole entry: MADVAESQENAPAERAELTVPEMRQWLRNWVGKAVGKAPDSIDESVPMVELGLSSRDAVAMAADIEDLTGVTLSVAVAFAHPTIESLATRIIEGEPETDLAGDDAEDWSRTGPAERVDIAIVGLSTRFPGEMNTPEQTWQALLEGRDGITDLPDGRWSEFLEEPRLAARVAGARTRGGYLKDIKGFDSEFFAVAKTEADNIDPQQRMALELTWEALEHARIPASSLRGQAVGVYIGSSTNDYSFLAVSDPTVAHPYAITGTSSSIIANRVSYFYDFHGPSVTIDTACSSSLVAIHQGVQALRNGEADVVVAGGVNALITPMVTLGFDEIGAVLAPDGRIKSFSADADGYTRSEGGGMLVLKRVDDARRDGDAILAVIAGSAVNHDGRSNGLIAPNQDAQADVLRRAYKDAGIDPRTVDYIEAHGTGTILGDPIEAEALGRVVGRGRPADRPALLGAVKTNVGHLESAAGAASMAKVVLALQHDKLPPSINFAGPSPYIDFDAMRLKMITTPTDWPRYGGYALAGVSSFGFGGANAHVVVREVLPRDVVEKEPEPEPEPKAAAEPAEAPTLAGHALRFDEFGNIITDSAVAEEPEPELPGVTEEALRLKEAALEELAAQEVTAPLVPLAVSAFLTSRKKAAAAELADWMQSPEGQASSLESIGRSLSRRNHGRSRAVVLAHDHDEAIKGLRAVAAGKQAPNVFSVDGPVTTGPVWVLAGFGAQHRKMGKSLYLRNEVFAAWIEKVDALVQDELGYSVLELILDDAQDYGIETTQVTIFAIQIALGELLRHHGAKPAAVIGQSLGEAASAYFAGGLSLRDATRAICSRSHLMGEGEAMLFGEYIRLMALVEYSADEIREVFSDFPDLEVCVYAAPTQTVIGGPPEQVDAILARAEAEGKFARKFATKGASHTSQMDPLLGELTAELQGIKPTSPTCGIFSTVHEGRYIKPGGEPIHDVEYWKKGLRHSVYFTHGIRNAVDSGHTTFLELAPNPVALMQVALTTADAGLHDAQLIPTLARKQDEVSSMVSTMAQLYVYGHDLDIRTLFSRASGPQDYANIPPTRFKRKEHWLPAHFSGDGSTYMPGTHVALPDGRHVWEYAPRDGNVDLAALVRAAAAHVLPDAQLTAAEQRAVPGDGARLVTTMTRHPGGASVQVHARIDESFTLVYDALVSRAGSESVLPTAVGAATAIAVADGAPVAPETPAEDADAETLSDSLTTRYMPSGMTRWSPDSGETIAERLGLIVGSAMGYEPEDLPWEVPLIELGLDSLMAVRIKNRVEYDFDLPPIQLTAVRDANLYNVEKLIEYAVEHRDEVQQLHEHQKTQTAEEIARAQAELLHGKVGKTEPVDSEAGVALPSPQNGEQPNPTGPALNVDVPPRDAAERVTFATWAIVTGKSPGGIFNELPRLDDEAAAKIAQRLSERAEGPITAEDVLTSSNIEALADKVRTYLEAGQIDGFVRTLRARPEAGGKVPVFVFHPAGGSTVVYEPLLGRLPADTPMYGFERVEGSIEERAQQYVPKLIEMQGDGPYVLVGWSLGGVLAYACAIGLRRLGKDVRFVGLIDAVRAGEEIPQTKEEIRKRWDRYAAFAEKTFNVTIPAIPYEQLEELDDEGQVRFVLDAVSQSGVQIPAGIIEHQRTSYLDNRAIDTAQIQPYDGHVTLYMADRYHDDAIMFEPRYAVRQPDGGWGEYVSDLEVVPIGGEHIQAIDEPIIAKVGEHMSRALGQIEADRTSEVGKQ
UniProt P9WPC5, whole entry: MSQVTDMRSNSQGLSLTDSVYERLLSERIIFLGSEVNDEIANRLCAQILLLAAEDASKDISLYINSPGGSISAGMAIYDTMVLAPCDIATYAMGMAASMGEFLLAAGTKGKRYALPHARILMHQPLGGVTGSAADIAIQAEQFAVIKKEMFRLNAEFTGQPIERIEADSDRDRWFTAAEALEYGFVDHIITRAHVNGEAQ
UniProt P9WPC3, whole entry partner: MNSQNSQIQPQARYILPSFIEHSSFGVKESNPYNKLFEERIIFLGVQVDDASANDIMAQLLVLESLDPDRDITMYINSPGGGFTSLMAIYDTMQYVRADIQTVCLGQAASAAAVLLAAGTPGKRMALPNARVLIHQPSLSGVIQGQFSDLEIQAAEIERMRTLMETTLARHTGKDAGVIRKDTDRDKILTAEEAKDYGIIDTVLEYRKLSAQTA
UniProt Q4DA54, 1-478: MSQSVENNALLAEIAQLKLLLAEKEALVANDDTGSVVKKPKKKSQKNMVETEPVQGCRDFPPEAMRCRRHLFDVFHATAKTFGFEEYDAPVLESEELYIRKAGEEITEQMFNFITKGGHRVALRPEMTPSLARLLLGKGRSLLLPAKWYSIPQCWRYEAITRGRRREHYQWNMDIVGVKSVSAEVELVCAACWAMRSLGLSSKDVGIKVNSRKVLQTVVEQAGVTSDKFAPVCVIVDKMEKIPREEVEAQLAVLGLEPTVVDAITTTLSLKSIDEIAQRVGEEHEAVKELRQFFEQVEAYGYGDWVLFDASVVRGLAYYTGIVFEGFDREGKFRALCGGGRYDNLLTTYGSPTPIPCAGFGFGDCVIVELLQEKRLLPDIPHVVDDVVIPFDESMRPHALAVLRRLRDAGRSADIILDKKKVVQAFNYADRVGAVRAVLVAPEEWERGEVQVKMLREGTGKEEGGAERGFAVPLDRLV

Data taken from ChEMBL document CHEMBL3988442, “University of Dundee, Small-Polar-MMV Screening Library” (2021).

CoaBC: 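Enzyme assay of CoaBC with a phosphate dye (Biomol Green) read at 650 nm. Target: Coenzyme A biosynthesis protein CoaBC, Mycobacterium tuberculosis (UniProt P9WNZ1). Compounds at 30 µM. Higher reads as stronger inhibition, judged from the few compounds that gave an IC50. Most strong results did not repeat in a second test. About 67,000 compounds were tested under these conditions; 0.06% (about 40) showed 50% or more at least once.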
Leishmania in macrophages: 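Cell assay of Leishmania donovani living inside macrophages; the read-out is not stated. Compounds at 30 µM. Higher reads as stronger inhibition (inferred: compounds with an IC50 in retests scored well above the rest). About 69,000 compounds were tested under these conditions; 1.5% (about 1,000) showed 50% or more at least once.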
Pks13 thioesterase: 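Enzyme assay of the thioesterase domain of polyketide synthase 13; the read-out is not stated. Target: Polyketide synthase Pks13, Mycobacterium tuberculosis (UniProt I6X8D2). Tested at 30 µM. Higher reads as stronger inhibition (inferred from which compounds were picked for retests). Of about 67,000 compounds tested this way, about 300 (0.46%) reached 50% or more in at least one test.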
ClpP1P2: 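ClpP1P2, Mycobacterium tuberculosis (UniProt P9WPC5 and UniProt P9WPC3). Protease assay of ClpP1P2, read by the AMC dye that it sets free. Tested at 50 µM. Higher reads as stronger inhibition, judged from the few compounds that gave an IC50. Most other retested compounds had strongly negative values. Size under these conditions: about 69,000 compounds, about 10 of them at 50% or above in at least one test.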
TcHisRS: 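Enzyme assay of histidyl-tRNA synthetase; the read-out is not stated. Target: Histidine-tRNA ligase, Trypanosoma cruzi CL Brener (UniProt Q4DA54). Concentration: 30 µM. Direction is inferred from retests: higher values go with stronger inhibition. Of about 69,000 compounds tested this way, about 31 (0.045%) reached 50% or more in at least one test.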

Each number is a percent effect as filed. How 0% and 100% were set is not recorded. Most values in the screen are low, and negative values occur. The compounds are a random part of those screened. A dash means the value is not listed here; it may have been measured.

With [H][C@]12CCN(C(=O)c3cccc(F)c3)C[C@@]1([H])OCCN(c1ncccn1)C2 the screen gave Leishmania in macrophages: 0.3484%. With O=c1ccc2c(n1CC1CCOCC1)CCN(Cc1ccoc1)CC2 the screen gave CoaBC: -3.069%; Pks13 thioesterase: 52.61%; ClpP1P2: 33.91%; TcHisRS: 11.06%. Cc1[nH]ncc1C(C)NCc1cccnc1 (centres undefined) read CoaBC: -32.68%; Leishmania in macrophages: 23.38%; Pks13 thioesterase: -7.077%; ClpP1P2: -3.259%; TcHisRS: 7.407%. With CCC(Nc1nc(CCN)nc2ccccc12)c1cccs1 (centres undefined) the screen gave CoaBC: 6.88%; Leishmania in macrophages: 67.47%; Pks13 thioesterase: -15.25%; ClpP1P2: -4.105%; TcHisRS: 12.94%. [H][C@@]12CCN(S(=O)(=O)C3CC3)[C@]1([H])CCC(=O)N2CC1CC1 read Leishmania in macrophages: 8.951%.

Cc1nn(C)c(Cl)c1C1CCCN1Cc1ccccn1 (centres undefined) gave CoaBC: 5.839%; Leishmania in macrophages: 32.43%; Pks13 thioesterase: -4.017%; ClpP1P2: -10.44%; TcHisRS: 1.433%. With O=C(O)C(F)(F)F.O=C(O)C(F)(F)F.[H][C@@]12CCN(Cc3ccsc3)C[C@]1([H])[C@@H](CN(C)Cc1ccco1)OC2 the screen gave Leishmania in macrophages: -5.729%. CC(=O)N[C@@H]1CN(Cc2ccccc2C#N)C[C@H]1c1ccc(C)cc1 read CoaBC: -0.3817%; Leishmania in macrophages: 16.71%; Pks13 thioesterase: 1.811%; ClpP1P2: -12.59%; TcHisRS: 9.135%. Cc1ccccc1C(NC(=O)Cn1cc(C2CC2)nn1)C1CC1 (centres undefined) gave CoaBC: 2.564%; Leishmania in macrophages: -8.327%; Pks13 thioesterase: -3.974%; ClpP1P2: -20.97%; TcHisRS: 5.946%. Result for CNC(=O)CNC(=O)CC1C(=O)NCCN1Cc1ccccc1C (centres undefined) was CoaBC: 0.6508%; Leishmania in macrophages: 0.4333%; Pks13 thioesterase: -14.19%; ClpP1P2: 3.143%; TcHisRS: 8.511%.

Result for COc1ncccc1C(=O)N1CC[C@H]2C[C@H](c3noc(C)n3)O[C@@H]2C1 was CoaBC: 2.256%; Pks13 thioesterase: 38.07%; ClpP1P2: -13.73%; TcHisRS: -1.22%. With Cn1ccc2c(C(=O)NC3CN4CCC3CC4)cccc21 (centres undefined) the screen gave CoaBC: 1.01%; Leishmania in macrophages: 0.4172%; Pks13 thioesterase: -7.097%; ClpP1P2: -16.35%; TcHisRS: -0.5848%. For O=C(c1cc(COc2ccc3c(c2)OCO3)[nH]n1)N1CCOCC1 the result was CoaBC: 4.946%; Leishmania in macrophages: -18.15%; Pks13 thioesterase: -5.783%; ClpP1P2: -3.856%; TcHisRS: 0%. With Cc1ccsc1CN1CCn2c(COc3cccnc3)cnc2C1C (centres undefined) the screen gave CoaBC: 8.045%; Pks13 thioesterase: -8.921%; ClpP1P2: -8.541%; TcHisRS: 16.58%. Cc1nnc([C@@]23CCO[C@@H]2CCN(S(=O)(=O)c2ccccc2)C3)o1 gave CoaBC: 2.475%; Pks13 thioesterase: -18.07%; ClpP1P2: 10.37%; TcHisRS: 7.735%.

With Cc1nn(C)cc1C(=O)N1C[C@H]2CC[C@@H]1CN(S(=O)(=O)N(C)C)C2 the screen gave CoaBC: 2.232%; Pks13 thioesterase: -8.182%; ClpP1P2: 0.609%; TcHisRS: 2.905%. With CCN1CCC12CCN(C(=O)c1ccsc1)C2 (centres undefined) the screen gave Pks13 thioesterase: -28.44%; ClpP1P2: -4.381%; TcHisRS: 4.908%. CCN(CC1CCCO1)C(=O)Nc1cc(C(=O)OC)ccc1F (centres undefined) gave CoaBC: -0.5141%; Leishmania in macrophages: 4.685%; Pks13 thioesterase: -26.87%; ClpP1P2: 2.586%; TcHisRS: -0.7519%. Result for Cc1ccnc(NC(=O)c2ccc(-n3ncc(C#N)c3N)cc2)c1 was CoaBC: 1.837%; Leishmania in macrophages: 1.315%; Pks13 thioesterase: 14.37%; ClpP1P2: -0.3603%; TcHisRS: 4.571%. For CSc1nccc(N2CCC(=O)N(CC3CC3)C(C(C)C)C2)n1 (centres undefined) the result was CoaBC: 6.876%; Leishmania in macrophages: -66.12%; Pks13 thioesterase: -4.171%; ClpP1P2: 9.784%; TcHisRS: -6.533%.

Result for Cc1cnc(C(NC(=O)NCc2nc(C3CC3)no2)C2CC2)s1 (centres undefined) was CoaBC: 4.204%; Leishmania in macrophages: 22.62%; Pks13 thioesterase: -24.02%; ClpP1P2: -4.67%; TcHisRS: -7.182%.

Repeated from the top, 3 entries:

structure,CoaBC,Leishmania in macrophages,Pks13 thioesterase,ClpP1P2,TcHisRS
[H][C@]12CCN(C(=O)c3cccc(F)c3)C[C@@]1([H])OCCN(c1ncccn1)C2,-,0.3484,-,-,-
O=c1ccc2c(n1CC1CCOCC1)CCN(Cc1ccoc1)CC2,-3.069,-,52.61,33.91,11.06
Cc1[nH]ncc1C(C)NCc1cccnc1 (centres undefined),-32.68,23.38,-7.077,-3.259,7.407